# Cell number after 72 h of treatment

Data from the primary screen of doi:10.1371/journal.pone.0140310, rounded.

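Human melanoma cells were exposed to a pair of drugs for 72 h in 1,536-well plates and read by automated microscopy after fixing and staining. The read-out is cell count (nuclei) in % of the DMSO control; lower values mean stronger growth inhibition or killing. Concentrations were fixed for each drug; these are the lower of two levels, a fifth of the higher. These are primary screening values without error estimates.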
Only some of the drugs and lines screened are listed, without regard to their results.
A dash means that no value is listed here.

All values are for the listed drug together with JZL184 (1000 nM): O=C(Oc1ccc([N+](=O)[O-])cc1)N1CCC(C(O)(c2ccc3c(c2)OCO3)c2ccc3c(c2)OCO3)CC1

Compounds and concentrations:
dovitinib, 100 nM: CN1CCN(c2ccc3nc(-c4c(N)c5c(F)cccc5[nH]c4=O)[nH]c3c2)CC1
T0901317, 1400 nM: O=S(=O)(c1ccccc1)N(CC(F)(F)F)c1ccc(C(O)(C(F)(F)F)C(F)(F)F)cc1
CX-4945, 400 nM: O=C(O)c1ccc2c(c1)nc(Nc1cccc(Cl)c1)c1ccncc12
L-779450, 200 nM: Oc1cc(-c2nc(-c3ccccc3)[nH]c2-c2ccncc2)ccc1Cl
BI-D1870, 200 nM: CC(C)CCN1c2nc(Nc3cc(F)c(O)c(F)c3)ncc2N(C)C(=O)C1C (stereo not drawn)
PD173074, 100 nM: CCN(CC)CCCCNc1ncc2cc(-c3cc(OC)cc(OC)c3)c(NC(=O)NC(C)(C)C)nc2n1
PF-04217903, 1000 nM: OCCn1cc(-c2cnc3nnn(Cc4ccc5ncccc5c4)c3n2)cn1

Cell line	L-779450	BI-D1870	dovitinib	PD173074	PF-04217903	T0901317	CX-4945
A2058	104	97.5	88.9	99.0	111	109	104
COLO 800	91.2	91.6	78.6	74.0	110	91.1	95.1
C32	83.3	109	93.1	93.3	98.0	93.3	123
LB2518-MEL	96.6	108	98.7	113	109	98.5	108
501mel	53.6	104	65.3	78.9	103	85.5	96.9
MEL-HO	76.1	86.3	94.6	102	109	108	94.3
IPC-298	87.6	100	105	110	97.3	92.9	99.5
COLO 829	101	107	81.6	79.4	101	105	82.2
A101D	95.3	86.7	85.5	102	104	98.1	106
G-361	83.6	102	93.2	88.7	108	95.7	83.8
A375	74.4	86.3	-	92.7	107	89.0	-
IST-MEL1	98.9	96.0	102	114	97.7	108	101
COLO 792	100	103	102	95.0	96.0	100	100
LOX IMVI	121	129	93.2	93.2	130	67.8	60.5

Repeated from the top, 2 entries:

Cell line	L-779450	BI-D1870	dovitinib	PD173074	PF-04217903	T0901317	CX-4945
A2058	104	97.5	88.9	99.0	111	109	104
COLO 800	91.2	91.6	78.6	74.0	110	91.1	95.1